Reference: PMC10447549

By UniProt entry, the sequences of proteins in these tests, tags left out.
UniProt Q8R0K9: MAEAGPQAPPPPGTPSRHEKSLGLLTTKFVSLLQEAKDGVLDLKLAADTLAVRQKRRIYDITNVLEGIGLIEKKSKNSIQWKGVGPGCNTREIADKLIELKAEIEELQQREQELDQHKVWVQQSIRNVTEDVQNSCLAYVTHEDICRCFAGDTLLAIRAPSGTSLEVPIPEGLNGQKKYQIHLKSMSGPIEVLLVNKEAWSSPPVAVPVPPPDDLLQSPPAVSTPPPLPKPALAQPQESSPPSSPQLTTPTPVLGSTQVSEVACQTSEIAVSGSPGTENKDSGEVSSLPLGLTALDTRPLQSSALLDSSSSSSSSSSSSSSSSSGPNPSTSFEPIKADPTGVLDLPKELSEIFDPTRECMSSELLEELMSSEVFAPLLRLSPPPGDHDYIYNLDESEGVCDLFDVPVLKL

Legend:
[1] = biological target: transcription factor E2f4 (endogenous, mouse) (mouse (endogenous in p19/Nras)) (UniProt Q8R0K9); assay: affinity purification with mass spectrometry; IP of endogenous E2f4 (Proteintech 10923-1-AP) against isotype control IgG from TNT-150 lysates of Trim33-WT and Trim33-KO p19/Nras cells, LC-MS/MS, three independent reactions
[2] = biological target: transcription factor E2f4 (endogenous, mouse) (mouse (endogenous in p19/Nras)), Q8R0K9; assay: as above; conditions: remark: other sources report otherwise

Binder | binding [1] | binding [2]
Rbl1 (endogenous, mouse) (protein, UniProt Q64701 1-1063) MFEDEPHAEGAAAVAAAREALQALCQELNLDEGSAAEALDDFTAIRGNYSLEGEVIHWLACSLYVACRKSIIPTVGKGVMEGNCVSLTRILRSAKLSLIQFFSKMKKWMDMSNLPQEFRERIERLERNFEVSTVIFKKFEPIFLDIFQNPYEEPPKLPRSRKQRRIPCSVKDLFNFCWTLFVYTKGNFRMIGDDLVNSYHLLLCCLDLIFANAIMCPNRRDLLNPSFKGLPSDFHAPDFKAAEEPPCIIAVLCDLHDGLLVEAKGIKEHYFKPYISKLFDKKILKGECLLDLSSFTDNSKAVNKEYEEYVLTVGDFDERIFLGADAEEEIGTPRKFTADTPFGKLTSQASVECNLQQHFEKKRSFAPSTPLTGRRYLQEKEAVTTPVASATQSVSRLQSIVAGLKSAPSEQLLNIFESCMRNPMGNIIKIVKGIGETFCQHYTQSTDKQPGSHIDFAVNRLKLAEILYYKILETIMVQETRRLHGMDMSVLLEQDIFHKSLMACCLEIVLFAYSSPRTFPWIIEVLDLQPFYFYKVIEVVIRSEEGLSRDMVKHLNSIEEQILESLAWTNNSALWEALHASANRVPSCEEVIFPNNFEIGNGGNVQGHLPMMPMSPIIHPRVKEVRTDSGSLRQDMQPLSPISVHERYSSPAAGSAKRRLFGDDPPKDTLMDKIMAEGTKLKIAPSSVTAESLSISPGQALLTMATTTVTGTTGRKVTVPLHGIANDAGEITLVPISMNPTQESTAESPVSLTAQSLIGTSPKQTHLTKAQDAHLTGVSKPKRTGSLALFYRKVYHLASVRLRDLCLKLDVSNELRRKIWTCFEFTLVHCPDLMKDRHLDQLLLCAFYIMAKVTKEERTFQEIMKSYRNQPQANSHVYRSVLLKSIPGGVVVYNGDCEMTDGDIEDATKTPNCSSEPVKEERGDLIKFYNTVYVGRVKSFALKYDLSNQDHIMDAPPLSPFPHIKQQPGSPRRISQQHSLYVSPHKNGAGLTPRSALLYKFNGSPSKSLKDINNMIRQGEQKTKKRVIAISGDADSPAKRLCQENDDVLLKRLQDVVSERANH | binds | 
Rbl2 (endogenous, mouse) (protein, UniProt Q64700 1-1135) MASGGNQSPPPPPAAAASSEEEEEDGDAADRAQPAGSPSHQIQQRFEELCSRLNMDEAARAEAWSSYRSMSESYTLEGNDLHWLACALYVACRKSVPTVSKGTAEGNYVSLTRILRCSEQSLIEFFNKMKKWEDMANLPPHFRERTERLERNFTVSAVIFKKYEPIFQDIFKYPQEEQPRQQRGRKQRRQPCTTSEIFHFCWVLFIYAKGNFPMISDDLVNSYHLLLCALDLVYGNALQCSNRKELVNPNFKGLSEDCHPKDSKASSDPPCVIEKLCSLHDGLVLEAKGIKEHFWKPYIRKLFEKKLLKGKEENLTGFLEPGNFGESFKAVNKAYEEYVLAAGNLDERVFLGEDAEEEVGTLSRCLSAASGTESAERTQMRDILQQHLDKSKALRVCTPLTGVRYVQENSPCVTPVSTAAHSLSRLHTMLSGLRNAPSEKLERILRSCSRDPTQAIADRLKEMYEIYSQHFQPDENFSNCAKEIANKHFRFAEMLYYKVLESVIEQEQKRLGDMDLSGVLEHDAFHRSLLACCLEVVAFSHKPPGNFPFIAEIFDVPHYHFYKVIEVFIRAEDGLCREVVKHLNQIEEQILDHLAWKTKSPLWDRIRDNENRVPTCEEVMPPQNLERTDEIYIAGSPLTPRRVGEVRADAGGLGRSITSPTTLYDRYSSPTVSTTRRRLFENDSPSEGSTSGRIPPQPLVNAVPVQNVPGETVSVTPVPGQTLVTMATATVTANNGQTVTIPVQGIANENGGITFFPVQVNVGGQAQAVAGSIQPLSAQALAGSLSSQQVTGTTLQVPGPVAIQQISPGGQQQNPGQPLTSSSIRPRKTSSLALFFRKVYYLAGVRLRDLCIKLDISDELRKKIWTCFEFSIIQCTELMMDRHLDQLLMCAIYVMAKVTKEDRSFQNIMRCYRTQPQARSQVYRSVLIKGKRRNSGSSESRSHQNSPTELNTDRASRDSSPVMRSNSTLPVPQPSSAPPTPTRLTGASSDVEEEERGDLIQFYNNIYRKQIQAFAMKYSQANAQTDTPPLSPYPFVRTGSPRRVQLSQSHPIYISPHNNEAMPSPREKIFYYFSNSPSKRLREINSMIRTGETPTKKRGILLDDGSESPAKRICPENHSALLRRLQDVANDRGSQ | binds | 
Dp1 (endogenous, mouse) (protein, UniProt Q08639 1-410) MAKDASLIEANGELKVFIDQNLSPGKGVVSLVAVHPSTVNTLGKQLLPKTFGQSNVNITQQVVIGTPQRPAASNTIVVGSPHTPNTHFVSQNQTSDSSPWSAGKRNRKGEKNGKGLRHFSMKVCEKVQRKGTTSYNEVADELVAEFSAADNHILPNESAYDQKNIRRRVYDALNVLMAMNIISKEKKEIKWIGLPTNSAQECQNLEVERQRRLERIKQKQSQLQELILQQIAFKNLVQRNRQAEQQARRPPPPNSVIHLPFIIVNTSRKTVIDCSISNDKFEYLFNFDNTFEIHDDIEVLKRMGMACGLESGNCSAEDLKVARSLVPKALEPYVTEMAQGSIGGVFVTTTGSTSNGTRLSASDLSNGADGMLATSSNGSQYSGSRVETPVSYVGEDDDDDDDFNENDEED | binds | 
Dp2 (endogenous, mouse) (protein, UniProt Q64163 1-446) MTAKNVGLPSTNAKLRGFIDQNFSPSKGNISLVAFPVSSTNSPTKILPKTLGPINVNVGPQMIISTPQRIANSGSVLIGNPYTPAPAMVTQTHIAEAAGWVPSDRKRAREFIDSDFSESKRSKKGDKNGKGLRHFSMKVCEKVQRKGTTSYNEVADELVSEFTNSNNHLAADSAYDQENIRRRVYDALNVLMAMNIISSLPTGKKRNQVDCNSAQECQNLEIEKQRRIERIKQKRAQLQELLLQQIAFKNLVQRNRQNEQQNQGPPAVNSTIQLPFIIINTSRKTVIDCSISSDKFEYLFNFDNTFEIHDDIEVLKRMGMSFGLESGKCSLEDLKIARSLVPKALEGYITDISTGPSWLNQGLLLNSTQSVSNLDPTTGATVPQSSVNQGLCLDAEVALATGQLPASNSHQSSSAASHFSESRGETPCSFNDEDEEDEEEDPSSPE | binds | 
Lin9 (endogenous, mouse), Q8C735 1-542 (protein) MAELDQLPDESSSAKALVSLKEGSLSNTWNEKYSSLQKTPVWKGRNAGPAVEMPFRNSKRSRLFSDEDDRQINTKSPKRNQRVAMIPQKFTATMSTPDKKASQKIGFRLRNLLKLPKAHKWCIYEWFYSNIDKPLFEGDNDFCVCLKESFPNLKTRKLTRVEWGKIRRLMGKPRRCSSAFFEEERSALKQKRQKIRLLQQRKVADVSQFKDLPDEIPLPLVIGTKVTARLRGIHDGLFTGQIDAVDTLNATYRVTFDRTGLGTHTIPDYEVLSNEPHETMPISAFGQKQRPSRFFMTPPRLHYTPPLQSPITDGDPLLGQSPWRSKVSGSDTETLGGFPVEFLIQVTKLSKILMIKKEHIKKLREMNTEAEKLKSYSMPIGIEFQRRYATIVLELEQLNKDLNKVLHKVQQYCYELAPDQGLQPADQPTDMRRRCEEEAQEIVRQANSASGQPCVENENLTDLISRLTAILLQIKCLAEGGDLNSFEFKSLTDSLNDIKNTIDASNISCFQNNVEIHVAHIQSGLSQMGNLHAFAANNTNRD |  | binds
Lin54 (endogenous, mouse) (protein, UniProt Q571G4 1-749) MEVVPAEVNSLLPDDIMDTAITLVDEDSIEAVIVSSPIPMETELEEIVNINSTGDSTATPISTEPITVYSNHTNQVAVNTTVSKADSNTTVKPAFPSGLQKLGAQTPVTISANQIILNKVSQTSDLKLGNQTLKPDGQKLILTTLGKSGSPIVLALPHSQLPQAQKVTAQAQPGDAKLPPQQIKVVTIGGRPEVKPVIGVSALTPGSQLINTTTQPSVLQTQQLKTVQIAKKPRTPTSGPVITKLIFAKPINSKAVTGQTTQASPPVVTGRVLSQSTPGTPSKTITISESGVIGSTLNSTTQTPNKIAISPLKSPNKTVKSAVQTITVGGMSTSQFKTIIPLATAPNVQQIQVPGSKFHYVRLVTATTASSSAQPVSQSPSVNTQPLQQAKPVVVNTTPVRMSVPFVQAQAVKQVVPKPINSTSQIVTTSQPQQRLIMPATPLPQIQPNLTNLPPGTVLAPAPGTGNVGYAVLPAQYVTQLQQSSYVSIASNSNFTGTSGIQTQARLPFNGIIPSESTSRPRKPCNCTKSLCLKLYCDCFANGEFCNNCNCTNCYNNLEHENERQKAIKACLDRNPEAFKPKIGKGKEGESDRRHSKGCNCKRSGCLKNYCECYEAKIMCSSICKCIGCKNFEESPERKTLMHLADAAEVRVQQQTAAKTKLSSQISDLLTRPTPALNSAGGKLPFTFVTKEVAEATCNCLLAQAEQADKKGKSKAAAERMILEEFGRCLMSVINSAGKAKSDPCAMHC | binds | 
Recql DNA helicase (endogenous, mouse) (protein, UniProt Q9Z129 1-648) MASVSALTEELESVASELHAIDIQIQELTERRQELLQRKSVLTGKIKQYLEDSSAEASSDLDTSPAAWNKEDFPWFGKVKDVLQNVFKLQKFRPLQLETINVTMARKDIFLVMPTGGGKSLCYQLPALCSDGFTLVICPLISLMEDQLMVLKQLGISATMLNASSSKEHVKWVHAEMVNKNSQLKLIYVTPEKIAKSKMFMSRLEKAYEAGRLTGAAVDEVHCCSQWGHDFRPDYKALGILKRQFPNASLMGLTATATNHVLKDVQKILCVGKCLTFTASFNRPNLFYEVRQKPSSAEDFTEDIVKLINGRYKGQSGIIYCFSQKDSEQITISLQKLGIHAGTYHANMEPEDKTKVHTQWSANELQVVVATVAFGMGIDKPDVRFVIHHSMSKSMENYYQESGRAGRDDSRADCILYYGFGDIFRISSMVVMENVGQQKLYEMVSYCQNVSKCRRVLIAQHFDEVWNADACNKMCDNCCKDVSFEKKNVTQHCRDLIKILKQAEGLNEKLTPLKLIDAWMGKGAAKLRVAGVVAPALPREDLERIVAHALLQQYLKEDYSFTAYATISYLKVGPRACLLSNEAHAVTMQVKKSAQSSVRGALSEARQVEQVDSKGEEQSSGNSQKSKSRLQPSGSKNAGAKKRKLDDA | binds | 

No constants are given. Whether binding was seen depends on the method and setting. Binding seen in cells or lysates may run through a third protein. Here binding means that the protein was enriched with, or labelled near, the bait; the list need not be complete.
